Settings in all cases: 10 µM; pre-incubation: 30-90 min
Assay [1] has as its system Danio rerio larvae (5 dpf, TLF). Kind of assay: OMR-Perf (SSMD vs DMSO vehicle); higher = higher than vehicle (e.g. higher dark-flash O-bend response probability, or better optomotor performance).
Assay [2] shares this test system. Kind of assay: Prob-Test (SSMD vs DMSO vehicle); higher = higher than vehicle (e.g. higher dark-flash O-bend response probability, or better optomotor performance).
For assay [3] the test system is unchanged. Kind of assay: Prob-Naive (SSMD vs DMSO vehicle); higher = higher than vehicle (e.g. higher dark-flash O-bend response probability, or better optomotor performance).
The test system is the same in assay [4]. The assay is described as follows: Prob-Train (SSMD vs DMSO vehicle); higher = higher than vehicle (e.g. higher dark-flash O-bend response probability, or better optomotor performance).

The other results are listed elsewhere or left out. This data set is noisy: repeats of one test often differ as much as different tests do.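 Free-swimming zebrafish larvae were scored for O-bend response probability to dark flashes (naive: first five; training: remaining flashes of four 60-flash blocks; test: later 60-flash block) and for turning toward alternating leftward/rightward LED motion (OMR). Six treated larvae were compared with sixty 0.1% DMSO controls; |SSMD|≥2 defined a hit.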

Take `CCOC(=O)[C@H](CCc1ccccc1)N[C@H]1CCCN2CCC[C@H](C(=O)O)N2C1=O.O` [Cilazapril Monohydrate]: the OMR-Perf in assay [1] was 0.221. For the same compound, in assay [2], the Prob-Test is -0.0153. In assay [3], this compound yielded a Prob-Naive of 0.338. The Prob-Train in assay [4] is 0.0902.
`O=C(O)c1ccc(O)c2ncccc12`: the OMR-Perf in assay [1] was determined as 0.72. For the same compound, in assay [2], the Prob-Test was -0.0416. For the same compound, the Prob-Naive in assay [3] was found to be 0.587. The compound also returned a Prob-Train in assay [4] of -0.225.
Take `CCCCC(=O)O[C@@H]1CC[C@H]2[C@@H]3CCc4cc(O)ccc4[C@@H]3CC[C@]12C` [Estradiol valerate]: in assay [1], the OMR-Perf was -0.489. Further, the Prob-Test in assay [2] was -0.911. The same compound came in with a Prob-Naive in assay [3] of -0.134. In assay [4], the Prob-Train is -2.03.
In assay [1], `CN1CCN(C2=Nc3ccccc3Oc3ccc(Cl)cc32)CC1.O=C(O)CCC(=O)O` [Loxapine Succinate] had an OMR-Perf of -0.688. The compound also had a Prob-Test in assay [2] of 0.414. This compound also came in with a Prob-Naive in assay [3] of -0.105. Besides, the Prob-Train in assay [4] was -0.935.
For the compound `Nc1ccc(S(=O)(=O)Nc2ccccn2)cc1` [Sulfapyridine], the OMR-Perf in assay [1] was -0.289. In assay [2], the Prob-Test was determined as 0.629. The compound also yielded a Prob-Naive in assay [3] of -0.118. This compound also gave a Prob-Train in assay [4] of 0.146.
`C[C@@H]1C(SC2CN(C3=NCCS3)C2)=C(C(=O)OCOC(=O)C(C)(C)C)N2C(=O)[C@H]([C@@H](C)O)[C@H]12` [Tebipenem Pivoxil] yielded an OMR-Perf in assay [1] of -0.587. This compound gave a Prob-Test in assay [2] of 0.0631. In assay [3], the Prob-Naive was 0.402. The compound further yielded a Prob-Train in assay [4] of 0.309.
With `O=C(c1ccc(/C=C/c2n[nH]c3ccccc23)cc1)N1CCNCC1`, the OMR-Perf in assay [1] was -0.0528. The Prob-Test in assay [2] worked out at 0.384. This compound returned a Prob-Naive in assay [3] of 0.564. The compound further had a Prob-Train in assay [4] of 0.344.
The like results for `Cc1noc(-c2ccc(CSCCC(=O)O)cc2)c1NC(=O)OC(C)c1ccccc1Cl` (configuration not stated) were, in that order, 0.308, 0.185, -0.269 and -0.0412.
Regarding `COc1ccc2c(c1)C(=O)N(CCc1ccc(S(=O)(=O)NC(=O)NC3CCCCC3)cc1)C(=O)C2(C)C` [Gliquidone], the OMR-Perf in assay [1] is -0.14. In assay [2], the Prob-Test is -0.369. The compound further yielded a Prob-Naive in assay [3] of -0.169. Moreover, the Prob-Train in assay [4] was -1.04.
Consider `CCOC(=O)C1=C(N)Oc2ccc(Br)cc2[C@H]1[C@H](C#N)C(=O)OCC`, for which the OMR-Perf in assay [1] was -0.673. Besides, the Prob-Test in assay [2] was -0.898. For the same compound, the Prob-Naive in assay [3] is -3.01. In assay [4], this compound displayed a Prob-Train of -2.88.
Compound `C#C[C@@]1(OC(C)=O)CC[C@H]2[C@@H]3CCC4=C[C@@H](OC(C)=O)CC[C@@H]4[C@@H]3CC[C@@]21C` [Ethynodiol diacetate] displayed an OMR-Perf in assay [1] of -0.741. In assay [2], this compound registered a Prob-Test of -1.54. The compound also registered a Prob-Naive in assay [3] of -0.861. In assay [4], this compound came in with a Prob-Train of -3.12.
Taken in the same sequence, the figures for `Cc1ccc(C(=O)c2ccc(CC(=O)O)n2C)cc1.O.O.[Na+]` [Tolmetin Sodium] were -0.612, -0.349, 0.0912 and -0.0335.
In assay [1], `CC1(C)SC2C(NC(=O)[C@H](NC(=O)N3CCNC3=O)c3ccccc3)C(=O)N2C1C(=O)O.[Na]` (some centres not stated) [Azlocillin sodium salt] showed an OMR-Perf of -0.106. In assay [2], this compound had a Prob-Test of -0.046. Further, the Prob-Naive in assay [3] was -0.265. The compound also showed a Prob-Train in assay [4] of -0.0449.
In turn, `CC(=O)OCC(=O)NCCCOc1cccc(CN2CCCCC2)c1.Cl` [Roxatidine Acetate HCl] displayed an OMR-Perf in assay [1] of 0.0834. Besides, the Prob-Test in assay [2] turned out to be 0.228. The same compound yielded a Prob-Naive in assay [3] of 0.188. Further, in assay [4], the Prob-Train is 0.54.
With `C[C@@H]1COC(Nc2ccc3ncnc(Nc4ccc(OCc5nccs5)c(Cl)c4)c3c2)=N1` [Varlitinib], the OMR-Perf in assay [1] stood at 0.227. The Prob-Test in assay [2] was -0.421. The Prob-Naive in assay [3] was -0.289. This compound had a Prob-Train in assay [4] of -0.633.
`COc1cc(Nc2ncc(F)c(Nc3ccc4c(n3)NC(=O)C(C)(C)O4)n2)cc(OC)c1OC.O=S(=O)(O)c1ccccc1` gave an OMR-Perf in assay [1] of -0.629. This compound also had a Prob-Test in assay [2] of -0.0922. The same compound returned a Prob-Naive in assay [3] of -0.109. In assay [4], this compound showed a Prob-Train of -0.421.
`CCCOc1ccc2nc(NC(=O)OC)[nH]c2c1` [Oxibendazole] showed an OMR-Perf in assay [1] of -1.03. Further, in assay [2], the Prob-Test is -1.79. The Prob-Naive in assay [3] is 0.0939. The Prob-Train in assay [4] is -0.214.
As to `O=C(NC1CCOCC1)c1ccc(-c2cc(-c3c[nH]nc3-c3ccccn3)ccn2)cc1`, the OMR-Perf in assay [1] is -0.523. In assay [2], the Prob-Test was determined as 0.27. The compound further displayed a Prob-Naive in assay [3] of -0.232. In assay [4], this compound came in with a Prob-Train of 0.24.
`O=c1ncn2nc(Sc3ccc(F)cc3F)ccc2c1-c1c(Cl)cccc1Cl` returned an OMR-Perf in assay [1] of -0.312. This compound also yielded a Prob-Test in assay [2] of -0.255. The Prob-Naive in assay [3] was 0.173. In assay [4], the Prob-Train was -0.44.
`C=C1/C(=C\C=C2\CCC[C@]3(C)[C@@H]([C@H](C)CCCC(C)C)CC[C@@H]23)C[C@@H](O)C[C@@H]1O` [Alfacalcidol] showed an OMR-Perf in assay [1] of -0.942. Further, in assay [2], the Prob-Test was -0.791. In assay [3], this compound returned a Prob-Naive of -0.321. The same compound returned a Prob-Train in assay [4] of -0.403.
`CCN(CC)CCCC(C)Nc1ccnc2cc(Cl)ccc12.O=P(O)(O)O.O=P(O)(O)O` (configuration not stated) [Chloroquine Phosphate] displayed an OMR-Perf in assay [1] of 0.0412. The Prob-Test in assay [2] is -0.388. For the same compound, the Prob-Naive in assay [3] was determined as 0.338. In assay [4], this compound showed a Prob-Train of -0.0444.
`COc1ccc(-c2ccc3c(N4CCOCC4)nc(N4C[C@@H](C)O[C@@H](C)C4)nc3n2)cc1CO`: the OMR-Perf in assay [1] came to 0.114. Besides, the Prob-Test in assay [2] turned out to be 0.322. For the same compound, in assay [3], the Prob-Naive was -0.0595. In addition, the Prob-Train in assay [4] came out at 0.218.
In turn, `CCC(=O)O[C@@]1(C(=O)SCF)[C@H](C)C[C@H]2[C@@H]3C[C@H](F)C4=CC(=O)C=C[C@]4(C)[C@]3(F)[C@H](O)C[C@@]21C` [Fluticasone propionate] yielded an OMR-Perf in assay [1] of 0.61. Moreover, in assay [2], the Prob-Test was -0.0717. Moreover, in assay [3], the Prob-Naive was -0.21. The Prob-Train in assay [4] amounted to 0.18.

Values taken from the supplement of paper PMC10727501.
